The values that follow come from patent US20050202443.

In this data set the test system is BccI. Description: enzyme reaction in vitro. The following applies: isoschizomer comparison, same lambda pattern; purified native protein; only the motif is given.

For at least one entry, the source does not settle the construct or the ends of the probe.

Consider “CCATC (double strand) [HpyC1I recognition site in lambda DNA]”, for which the “activity on this sequence” value is “active”.
